This is an account of results in publication PMC12087451.

The chains behind the UniProt entries cited, without tags or fusion partners.
UniProt P08515, whole entry: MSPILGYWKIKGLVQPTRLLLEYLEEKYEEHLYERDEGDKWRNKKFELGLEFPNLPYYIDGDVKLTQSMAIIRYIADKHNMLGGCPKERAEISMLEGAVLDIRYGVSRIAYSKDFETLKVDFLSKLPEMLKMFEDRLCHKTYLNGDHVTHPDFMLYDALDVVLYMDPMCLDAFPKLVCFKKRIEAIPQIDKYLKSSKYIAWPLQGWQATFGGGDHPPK

For at least one entry, the source does not settle the construct or the ends of the probe. For some of these results: No signal at the amounts used counts as a negative.

In series [1] the test system is GST-SmbHLH65 (Salvia miltiorrhiza). As to the kind of experiment: EMSA. The conditions noted are these: Chemiluminescent EMSA kit (Beyotime GS009) EMSA/Gel-Shift binding buffer, 25 C, 10 min then 20 min with biotin probe, 6% PAGE; salt and pH not stated; recombinant protein; protein details: N-terminal GST (pGEX-4T-1).
The test system of series [2] is GST-SmbHLH85 (Salvia miltiorrhiza). As to the kind of experiment: EMSA. As to conditions: Chemiluminescent EMSA kit (Beyotime GS009) EMSA/Gel-Shift binding buffer, 25 C, 10 min then 20 min with biotin probe, 6% PAGE; salt and pH not stated; recombinant protein; protein details: N-terminal GST (pGEX-4T-1). For orientation: Mobility shift assays separate free from complexed probe on a gel.

In another series the target is GST (UniProt P08515). Nature of the series: EMSA. The conditions noted are these: Chemiluminescent EMSA kit (Beyotime GS009) EMSA/Gel-Shift binding buffer, 25 C, 10 min then 20 min with biotin probe, 6% PAGE; salt and pH not stated; recombinant protein; protein details: GST.
Series [3] concerns GST-SmbHLH85 (Salvia miltiorrhiza). As to the kind of experiment: competition with a labelled probe. The conditions noted are these: unlabelled mutant competitor, stated at the same amount as the biotin probe; Chemiluminescent EMSA kit (Beyotime GS009) EMSA/Gel-Shift binding buffer, 25 C, 10 min then 20 min with biotin probe, 6% PAGE; salt and pH not stated; recombinant protein; protein details: N-terminal GST (pGEX-4T-1).

As to “CATTTCCACATGCAATTACATTTCCACATGCAATTACATTTCCACATGCAATTA (double strand) [pSmCPS1 E-box probe (3 copies)]”, the binding result in series [1] was “no binding”; in series [2], “binds”.
As for “TTCATTGACCAAATTTCATTGACCAAATTTCATTGACCAAAT (double strand) [pSmbHLH65 W-box probe (3 copies)]”, in the series with GST, the binding result was “no binding”.
For “AAAGGCAAAAAATTTTTAAAAGGCAAAAAATTTTTAAAAGGCAAAAAATTTTTA (double strand) [pSmDXS2-M cold probe]”, in series [3], the binding result was “no binding”.
The same measure, in the same setting: to “CATTTCAAAAAACAATTACATTTCAAAAAACAATTACATTTCAAAAAACAATTA (double strand) [pSmCPS1-M cold probe]” belongs “no binding”.
Take “AAAGGCCATGTGTTTTTAAAAGGCCATGTGTTTTTAAAAGGCCATGTGTTTTTA (double strand) [pSmDXS2 E-box probe (3 copies)]”: the binding result in series [1] was “no binding”; in series [2], “binds”.
